Experimental data from the supplement of paper PMC6411743.
± gives the standard deviation of the averaged measurements. The entries are a selection whose mix differs from that of the whole data set.

The chains behind the UniProt entries cited, without tags or fusion partners. Where a name states a change or a piece, a line headed by the entry shows the natural chain unless it says otherwise.
UniProt Q96D96: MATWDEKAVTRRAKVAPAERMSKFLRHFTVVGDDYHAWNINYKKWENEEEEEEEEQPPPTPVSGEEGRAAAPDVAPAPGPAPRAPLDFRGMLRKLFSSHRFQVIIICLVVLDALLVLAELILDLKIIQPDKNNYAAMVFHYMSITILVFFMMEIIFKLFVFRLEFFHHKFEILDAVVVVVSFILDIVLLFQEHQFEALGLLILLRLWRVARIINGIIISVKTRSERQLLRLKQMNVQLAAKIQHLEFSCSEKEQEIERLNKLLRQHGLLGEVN
UniProt Q96FS4: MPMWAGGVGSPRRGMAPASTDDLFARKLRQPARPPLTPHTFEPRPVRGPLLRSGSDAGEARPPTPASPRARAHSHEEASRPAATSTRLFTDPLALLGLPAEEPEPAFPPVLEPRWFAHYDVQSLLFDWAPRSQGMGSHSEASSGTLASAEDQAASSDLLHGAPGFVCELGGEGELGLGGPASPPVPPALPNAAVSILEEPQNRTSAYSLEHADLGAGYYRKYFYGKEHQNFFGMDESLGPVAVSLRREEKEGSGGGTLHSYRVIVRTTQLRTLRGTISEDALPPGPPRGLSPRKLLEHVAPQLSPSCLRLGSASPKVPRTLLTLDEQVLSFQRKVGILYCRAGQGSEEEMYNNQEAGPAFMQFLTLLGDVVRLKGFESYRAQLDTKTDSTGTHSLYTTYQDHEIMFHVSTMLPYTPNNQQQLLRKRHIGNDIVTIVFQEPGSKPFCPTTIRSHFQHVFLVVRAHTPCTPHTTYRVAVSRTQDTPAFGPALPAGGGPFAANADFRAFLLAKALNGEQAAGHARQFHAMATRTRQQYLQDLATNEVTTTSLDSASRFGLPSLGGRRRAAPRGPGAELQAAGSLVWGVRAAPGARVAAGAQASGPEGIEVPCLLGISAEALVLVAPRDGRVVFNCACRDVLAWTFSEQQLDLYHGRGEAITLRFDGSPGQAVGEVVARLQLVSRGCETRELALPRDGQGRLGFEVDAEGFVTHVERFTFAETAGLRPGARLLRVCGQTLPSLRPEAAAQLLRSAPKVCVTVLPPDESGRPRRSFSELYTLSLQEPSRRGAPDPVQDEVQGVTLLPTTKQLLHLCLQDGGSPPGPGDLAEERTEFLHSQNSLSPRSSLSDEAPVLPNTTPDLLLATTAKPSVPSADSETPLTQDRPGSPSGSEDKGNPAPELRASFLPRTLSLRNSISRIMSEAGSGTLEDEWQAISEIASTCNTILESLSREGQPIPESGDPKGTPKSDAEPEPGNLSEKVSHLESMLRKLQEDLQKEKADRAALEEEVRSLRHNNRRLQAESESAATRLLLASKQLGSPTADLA
UniProt Q96PU4: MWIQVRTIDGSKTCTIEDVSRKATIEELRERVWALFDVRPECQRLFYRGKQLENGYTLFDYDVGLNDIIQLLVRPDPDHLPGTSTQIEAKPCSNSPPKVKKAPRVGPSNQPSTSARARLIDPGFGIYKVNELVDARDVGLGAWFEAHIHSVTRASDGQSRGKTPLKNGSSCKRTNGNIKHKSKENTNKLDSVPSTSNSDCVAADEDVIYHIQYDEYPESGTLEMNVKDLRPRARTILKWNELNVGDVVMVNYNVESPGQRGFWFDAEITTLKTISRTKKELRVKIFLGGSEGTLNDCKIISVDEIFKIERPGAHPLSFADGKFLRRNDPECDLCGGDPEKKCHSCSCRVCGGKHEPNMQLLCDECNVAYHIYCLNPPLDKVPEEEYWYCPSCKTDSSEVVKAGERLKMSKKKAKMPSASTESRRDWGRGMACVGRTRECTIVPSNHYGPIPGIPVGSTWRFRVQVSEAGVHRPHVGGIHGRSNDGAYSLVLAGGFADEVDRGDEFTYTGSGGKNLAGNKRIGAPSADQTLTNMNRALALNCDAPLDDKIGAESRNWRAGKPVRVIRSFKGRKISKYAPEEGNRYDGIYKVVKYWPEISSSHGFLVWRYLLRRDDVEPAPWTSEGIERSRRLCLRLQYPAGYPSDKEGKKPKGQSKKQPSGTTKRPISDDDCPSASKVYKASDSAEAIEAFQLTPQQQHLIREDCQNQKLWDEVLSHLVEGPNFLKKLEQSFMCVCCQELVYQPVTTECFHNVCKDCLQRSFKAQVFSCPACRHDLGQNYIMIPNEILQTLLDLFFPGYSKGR
UniProt Q96Q42: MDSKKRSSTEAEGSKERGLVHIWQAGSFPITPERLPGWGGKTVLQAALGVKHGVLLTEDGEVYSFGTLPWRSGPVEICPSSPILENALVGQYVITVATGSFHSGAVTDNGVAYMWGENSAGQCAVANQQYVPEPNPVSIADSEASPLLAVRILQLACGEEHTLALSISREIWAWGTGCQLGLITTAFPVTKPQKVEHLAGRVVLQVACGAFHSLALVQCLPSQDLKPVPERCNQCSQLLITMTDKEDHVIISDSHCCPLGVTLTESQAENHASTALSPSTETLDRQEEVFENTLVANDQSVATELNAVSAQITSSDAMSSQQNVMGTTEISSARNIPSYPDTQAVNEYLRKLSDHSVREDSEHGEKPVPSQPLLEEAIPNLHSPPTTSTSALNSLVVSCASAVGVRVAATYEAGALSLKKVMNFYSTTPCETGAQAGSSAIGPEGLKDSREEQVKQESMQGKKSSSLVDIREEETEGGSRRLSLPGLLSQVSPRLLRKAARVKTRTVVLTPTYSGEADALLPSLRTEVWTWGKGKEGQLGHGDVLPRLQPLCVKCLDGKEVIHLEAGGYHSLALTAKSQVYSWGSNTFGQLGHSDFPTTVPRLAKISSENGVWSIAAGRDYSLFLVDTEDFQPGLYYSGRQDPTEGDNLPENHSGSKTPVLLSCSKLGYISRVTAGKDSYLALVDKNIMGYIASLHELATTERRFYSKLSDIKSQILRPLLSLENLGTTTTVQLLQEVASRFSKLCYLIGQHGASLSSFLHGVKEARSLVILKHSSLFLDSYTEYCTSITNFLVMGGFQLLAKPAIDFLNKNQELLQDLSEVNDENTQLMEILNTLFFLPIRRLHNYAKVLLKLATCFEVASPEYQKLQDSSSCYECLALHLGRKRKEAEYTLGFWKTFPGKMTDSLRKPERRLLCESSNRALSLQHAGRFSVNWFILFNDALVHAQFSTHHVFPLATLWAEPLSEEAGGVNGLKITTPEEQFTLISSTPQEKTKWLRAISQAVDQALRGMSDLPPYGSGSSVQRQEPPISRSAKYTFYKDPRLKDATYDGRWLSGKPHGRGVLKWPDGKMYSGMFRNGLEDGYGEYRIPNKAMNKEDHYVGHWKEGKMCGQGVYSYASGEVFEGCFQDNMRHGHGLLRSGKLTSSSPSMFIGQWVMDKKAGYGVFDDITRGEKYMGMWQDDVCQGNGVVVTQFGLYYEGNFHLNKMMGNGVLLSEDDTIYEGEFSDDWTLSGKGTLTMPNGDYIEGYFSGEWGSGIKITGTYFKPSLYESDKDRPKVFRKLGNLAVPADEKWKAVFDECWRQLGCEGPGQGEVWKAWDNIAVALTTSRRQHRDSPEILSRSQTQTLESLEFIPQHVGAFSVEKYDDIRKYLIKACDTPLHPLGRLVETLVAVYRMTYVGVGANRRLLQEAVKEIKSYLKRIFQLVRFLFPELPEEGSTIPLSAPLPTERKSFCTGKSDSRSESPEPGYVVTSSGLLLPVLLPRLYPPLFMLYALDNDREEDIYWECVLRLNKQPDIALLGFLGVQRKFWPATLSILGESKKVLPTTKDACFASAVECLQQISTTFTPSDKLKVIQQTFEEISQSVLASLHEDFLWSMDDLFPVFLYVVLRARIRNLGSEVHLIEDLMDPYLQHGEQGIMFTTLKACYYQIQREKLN
UniProt Q96CS3: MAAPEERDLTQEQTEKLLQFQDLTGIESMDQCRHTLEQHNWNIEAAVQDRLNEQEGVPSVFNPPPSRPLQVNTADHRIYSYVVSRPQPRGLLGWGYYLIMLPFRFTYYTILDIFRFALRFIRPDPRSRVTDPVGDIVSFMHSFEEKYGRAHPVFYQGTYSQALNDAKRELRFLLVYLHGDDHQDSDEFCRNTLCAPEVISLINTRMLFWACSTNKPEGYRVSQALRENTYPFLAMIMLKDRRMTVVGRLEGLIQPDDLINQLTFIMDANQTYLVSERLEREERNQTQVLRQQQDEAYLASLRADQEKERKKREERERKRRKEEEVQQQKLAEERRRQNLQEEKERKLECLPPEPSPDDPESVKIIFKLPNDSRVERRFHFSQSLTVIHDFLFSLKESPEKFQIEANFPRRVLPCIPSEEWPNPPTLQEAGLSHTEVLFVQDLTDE
UniProt Q96E14: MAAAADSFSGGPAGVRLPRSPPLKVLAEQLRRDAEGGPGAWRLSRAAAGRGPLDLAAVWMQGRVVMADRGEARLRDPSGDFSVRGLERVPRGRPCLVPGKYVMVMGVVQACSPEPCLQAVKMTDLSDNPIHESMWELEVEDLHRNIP
UniProt Q96QC0: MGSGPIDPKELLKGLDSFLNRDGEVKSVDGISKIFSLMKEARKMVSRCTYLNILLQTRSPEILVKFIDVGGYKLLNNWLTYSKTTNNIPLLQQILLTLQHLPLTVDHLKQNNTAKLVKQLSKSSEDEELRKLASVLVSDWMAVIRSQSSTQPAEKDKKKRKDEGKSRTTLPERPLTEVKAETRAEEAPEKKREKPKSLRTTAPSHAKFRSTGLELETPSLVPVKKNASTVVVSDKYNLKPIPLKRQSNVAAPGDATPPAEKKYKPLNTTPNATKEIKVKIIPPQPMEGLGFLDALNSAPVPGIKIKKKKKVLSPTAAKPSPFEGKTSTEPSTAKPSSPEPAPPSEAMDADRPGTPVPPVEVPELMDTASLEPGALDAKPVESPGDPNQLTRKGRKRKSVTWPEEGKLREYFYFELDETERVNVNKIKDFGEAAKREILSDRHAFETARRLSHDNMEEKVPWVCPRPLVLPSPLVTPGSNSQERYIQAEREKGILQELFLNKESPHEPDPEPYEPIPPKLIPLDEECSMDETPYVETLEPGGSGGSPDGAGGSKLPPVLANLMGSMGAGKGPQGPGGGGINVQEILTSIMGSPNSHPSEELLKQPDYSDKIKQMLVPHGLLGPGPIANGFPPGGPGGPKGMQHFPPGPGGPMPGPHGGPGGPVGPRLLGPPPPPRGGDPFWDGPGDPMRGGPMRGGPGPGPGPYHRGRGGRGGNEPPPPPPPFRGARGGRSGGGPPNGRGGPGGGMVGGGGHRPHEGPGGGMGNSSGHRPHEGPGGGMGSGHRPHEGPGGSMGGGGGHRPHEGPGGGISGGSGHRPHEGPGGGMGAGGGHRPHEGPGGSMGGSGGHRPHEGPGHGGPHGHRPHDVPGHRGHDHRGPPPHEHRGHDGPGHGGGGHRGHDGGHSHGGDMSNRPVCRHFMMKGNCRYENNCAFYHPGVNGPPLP
UniProt Q96HA8: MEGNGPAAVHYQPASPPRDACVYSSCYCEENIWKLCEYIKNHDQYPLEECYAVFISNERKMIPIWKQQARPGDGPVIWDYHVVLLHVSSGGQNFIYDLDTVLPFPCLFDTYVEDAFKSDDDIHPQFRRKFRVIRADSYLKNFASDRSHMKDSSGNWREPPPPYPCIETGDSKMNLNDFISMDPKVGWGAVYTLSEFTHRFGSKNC

Compound: Nc1ncnc2c1ncn2[C@@H]1O[C@H](COP(=O)(O)OP(=O)(O)OP(=O)(O)O)[C@@H](O)[C@H]1O [adenosine triphosphate]
Assay: NP40-soluble protein abundance relative to vehicle (solubility fold change) (ratio); higher = more soluble protein in presence of ATP
How it was run: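 Data come from three independent experiments in which Dounce-homogenised Jurkat crude lysate was treated at eight concentrations from 0.1 to 10 mM. Treatment ran 10 min at room temperature and then 3 min at 37 °C, after which 0.8% NP40 and benzonase were added for 60 min at 4 °C before ultracentrifugation. The supernatant underwent TMT labelling and LC-MS/MS, and vsn-normalised intensities were expressed as fold change against the detergent-processed vehicle in each replicate.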

Target	NP40-soluble protein abundance (concentration: 1mM)	NP40-soluble protein abundance (concentration: 2mM)	NP40-soluble protein abundance (concentration: 4mM)	NP40-soluble protein abundance (concentration: 6mM)	NP40-soluble protein abundance (concentration: 8mM)	NP40-soluble protein abundance (concentration: 10mM)
UniProt Q96D53	1.3 ± 0.23	1.22 ± 0.21	1.24 ± 0.28	1.26 ± 0.25	1.29 ± 0.19	1.25 ± 0.21
UniProt Q96RL7-4|Q96RL7 and related entries	1.05 ± 0.077	1.03 ± 0.074	1.06 ± 0.084	0.968 ± 0.089	1.06 ± 0.048	1.02 ± 0.061
UniProt Q96HA7 and related entries	1.03 ± 0.021	1.03 ± 0.083	1.07 ± 0.12	1.09 ± 0.12	1.06 ± 0.1	1.13 ± 0.11
UniProt Q96K17	0.997 ± 0.12	1.03 ± 0.088	1.01 ± 0.087	1.07 ± 0.11	1.04 ± 0.028	0.979 ± 0.12
UniProt Q96D05 and related entries	0.932 ± 0.14	0.9585 ± 0.0053	0.943 ± 0.071	0.886 ± 0.013	0.842 ± 0.029	0.796 ± 0.2
UniProt Q96D96 and related entries	1.05 ± 0.072	1.01 ± 0.064	1.01 ± 0.091	1.02 ± 0.078	1.01 ± 0.068	1 ± 0.067
KTI12 (UniProt Q96EK9)	0.986 ± 0.12	1 ± 0.019	1.03 ± 0.099	0.999 ± 0.065	1.05 ± 0.057	0.974 ± 0.06
SIPA1 (UniProt Q96FS4)	0.967 ± 0.046	0.988 ± 0.022	1.04 ± 0.04	1.03 ± 0.071	1.08 ± 0.06	1.11 ± 0.014
UniProt Q96JQ2	0.858 ± 0.2	0.9491 ± 0.0063	0.985 ± 0.14	0.997 ± 0.081	0.897 ± 0.086	0.852 ± 0.035
UniProt Q96Q89-3|Q96Q89 and related entries	1.04 ± 0.046	1.04 ± 0.046	1.01 ± 0.028	1.02 ± 0.065	0.967 ± 0.046	0.986 ± 0.057
CCDC127 (UniProt Q96BQ5)	0.965 ± 0.12	1 ± 0.048	0.98 ± 0.01	0.859 ± 0.04	0.984 ± 0.049	0.953 ± 0.066
UHRF2 (UniProt Q96PU4)	1.05 ± 0.057	1.05 ± 0.012	1.04 ± 0.044	1.022 ± 0.0055	1.03 ± 0.023	1.05 ± 0.021
UniProt Q96E29 and related entries	1.03 ± 0.073	1.06 ± 0.1	1.02 ± 0.057	1.08 ± 0.11	0.993 ± 0.029	1.01 ± 0.048
PWWP2A (UniProt Q96N64)	1 ± 0.059	0.98 ± 0.011	1.01 ± 0.044	1.02 ± 0.051	0.9706 ± 0.0049	1 ± 0.064
UniProt Q96HR8 and related entries	1.2 ± 0.19	1.11 ± 0.087	1.11 ± 0.071	1.18 ± 0.085	1.1 ± 0.036	1.13 ± 0.08
UniProt Q96ED9 and related entries	0.99 ± 0.32	0.919 ± 0.074	1.05 ± 0.14	0.986 ± 0.2	1 ± 0.23	0.897 ± 0.038
FAM136A (UniProt Q96C01)	0.932 ± 0.12	0.955 ± 0.075	0.943 ± 0.037	0.983 ± 0.093	0.922 ± 0.011	0.856 ± 0.11
UniProt Q96EE3 and related entries	1.04 ± 0.096	1.09 ± 0.05	1.09 ± 0.065	1.05 ± 0.065	1.06 ± 0.033	1.14 ± 0.044
PDXP (UniProt Q96GD0)	0.957 ± 0.061	0.937 ± 0.032	0.924 ± 0.047	0.885 ± 0.11	0.908 ± 0.027	0.924 ± 0.042
UniProt Q96SB8 and related entries	1.03 ± 0.029	1.04 ± 0.022	1.04 ± 0.014	1.05 ± 0.026	1.05 ± 0.027	1.03 ± 0.019

Complete entries, quoted from the list. Values in the order: NP40-soluble protein abundance (concentration: 1mM)	NP40-soluble protein abundance (concentration: 2mM)	NP40-soluble protein abundance (concentration: 4mM)	NP40-soluble protein abundance (concentration: 6mM)	NP40-soluble protein abundance (concentration: 8mM)	NP40-soluble protein abundance (concentration: 10mM)
UniProt Q96D53 is entered as 1.3 ± 0.23	1.22 ± 0.21	1.24 ± 0.28	1.26 ± 0.25	1.29 ± 0.19	1.25 ± 0.21
UniProt Q96D05 and related entries is entered as 0.932 ± 0.14	0.9585 ± 0.0053	0.943 ± 0.071	0.886 ± 0.013	0.842 ± 0.029	0.796 ± 0.2

More entries

Target	NP40-soluble protein abundance (concentration: 1mM)	NP40-soluble protein abundance (concentration: 2mM)	NP40-soluble protein abundance (concentration: 4mM)	NP40-soluble protein abundance (concentration: 6mM)	NP40-soluble protein abundance (concentration: 8mM)	NP40-soluble protein abundance (concentration: 10mM)
UniProt Q96P48 and related entries	1.03 ± 0.085	1.02 ± 0.086	1.02 ± 0.039	0.95 ± 0.082	1.03 ± 0.02	1 ± 0.055
CCDC43 (UniProt Q96MW1)	0.902 ± 0.089	0.911 ± 0.013	0.919 ± 0.046	0.944 ± 0.047	0.937 ± 0.029	0.866 ± 0.062
UniProt Q96ES7	0.983 ± 0.12	1.02 ± 0.14	0.984 ± 0.13	1.01 ± 0.12	0.98 ± 0.078	1 ± 0.096
WDR89 (UniProt Q96FK6)	1.17 ± 0.047	1.17 ± 0.035	1.21 ± 0.06	1.27 ± 0.093	1.29 ± 0.14	1.33 ± 0.11
SPAG5 (UniProt Q96R06)	1.02 ± 0.034	1.03 ± 0.035	1.03 ± 0.013	1.05 ± 0.049	1 ± 0.022	1.05 ± 0.018
UniProt Q96Q42 and related entries	1.4 ± 0.21	1.54 ± 0.7	1.3 ± 0.2	1.59 ± 0.39	1.17 ± 0.077	1.17 ± 0.17
SPEN (UniProt Q96T58)	1.12 ± 0.043	1.16 ± 0.053	1.2 ± 0.047	1.27 ± 0.078	1.25 ± 0.018	1.3 ± 0.022
FAF2 (UniProt Q96CS3)	0.993 ± 0.044	0.985 ± 0.038	0.956 ± 0.014	1 ± 0.04	0.951 ± 0.022	0.965 ± 0.027
NSUN4 (UniProt Q96CB9)	1.01 ± 0.17	1.02 ± 0.13	1.09 ± 0.13	1.06 ± 0.17	1.19 ± 0.12	1.26 ± 0.11
UniProt Q96G28	0.969 ± 0.092	0.959 ± 0.05	0.932 ± 0.032	0.961 ± 0.058	0.92 ± 0.0096	0.888 ± 0.034
IPO9 (UniProt Q96P70)	0.958 ± 0.0095	0.991 ± 0.014	0.934 ± 0.052	0.926 ± 0.02	0.91 ± 0.034	0.936 ± 0.014
UniProt Q96EB1 and related entries	0.979 ± 0.017	0.961 ± 0.031	0.951 ± 0.045	0.945 ± 0.036	0.941 ± 0.045	0.965 ± 0.037
RMI2 (UniProt Q96E14)	0.949 ± 0.11	0.932 ± 0.098	0.98 ± 0.085	0.936 ± 0.016	0.958 ± 0.02	0.977 ± 0.046
UniProt Q96L92 and related entries	1 ± 0.099	0.993 ± 0.1	1.01 ± 0.069	0.94 ± 0.12	1.05 ± 0.063	1.02 ± 0.059
UniProt Q96Q05-3|Q96Q05 and related entries	0.996 ± 0.053	0.981 ± 0.033	0.986 ± 0.046	0.945 ± 0.061	0.976 ± 0.067	0.996 ± 0.058
UniProt Q96P50 and related entries	0.882 ± 0.049	0.996 ± 0.039	0.984 ± 0.04	0.99 ± 0.047	0.9762 ± 0.0034	1.062 ± 0.0011
UniProt Q96ME1-4	0.946 ± 0.062	0.999 ± 0.16	0.985 ± 0.12	0.888 ± 0.044	0.998 ± 0.093	0.995 ± 0.075
UniProt Q96DB5	0.97 ± 0.067	0.987 ± 0.041	0.967 ± 0.054	0.923 ± 0.04	0.946 ± 0.067	0.954 ± 0.024
PAWR (UniProt Q96IZ0)	0.964 ± 0.066	0.98 ± 0.012	0.984 ± 0.035	1.02 ± 0.035	0.965 ± 0.052	0.927 ± 0.069
SNF8 (UniProt Q96H20)	1 ± 0.045	0.999 ± 0.029	1.03 ± 0.037	0.971 ± 0.033	1 ± 0.054	0.935 ± 0.068

Target	NP40-soluble protein abundance (concentration: 1mM)	NP40-soluble protein abundance (concentration: 2mM)	NP40-soluble protein abundance (concentration: 4mM)	NP40-soluble protein abundance (concentration: 6mM)	NP40-soluble protein abundance (concentration: 8mM)	NP40-soluble protein abundance (concentration: 10mM)
UniProt Q96SN8 and related entries	1.08 ± 0.051	1.03 ± 0.039	1.04 ± 0.038	1.01 ± 0.14	1.02 ± 0.11	1.01 ± 0.069
UniProt Q96BN8	0.944 ± 0.031	0.936 ± 0.017	0.949 ± 0.03	0.885 ± 0.065	0.9266 ± 0.0065	0.921 ± 0.01
PPP1R10 (UniProt Q96QC0)	0.981 ± 0.018	0.997 ± 0.021	1.04 ± 0.038	1.11 ± 0.026	1.067 ± 0.0049	1.1 ± 0.016
UniProt Q96FZ2	0.99 ± 0.047	1 ± 0.018	0.985 ± 0.025	1.02 ± 0.055	0.971 ± 0.057	0.977 ± 0.036
UniProt Q96EU6 and related entries	0.97 ± 0.011	0.978 ± 0.016	1.05 ± 0.096	1.06 ± 0.049	1.03 ± 0.1	1.03 ± 0.016
MCEE (UniProt Q96PE7)	0.952 ± 0.048	0.966 ± 0.024	0.93 ± 0.035	0.937 ± 0.069	0.896 ± 0.027	0.87 ± 0.058
WDYHV1 (UniProt Q96HA8)	0.936 ± 0.081	0.942 ± 0.053	0.883 ± 0.022	0.888 ± 0.1	0.935 ± 0.02	0.913 ± 0.035
UniProt Q96BX8	1.02 ± 0.098	0.986 ± 0.1	0.971 ± 0.1	0.933 ± 0.087	0.961 ± 0.088	0.956 ± 0.066
ZFP91 (UniProt Q96JP5)	1.01 ± 0.032	1.03 ± 0.064	1 ± 0.057	0.988 ± 0.021	0.994 ± 0.074	0.96 ± 0.028
UniProt Q96K76-4	1 ± 0.043	1.01 ± 0.071	0.987 ± 0.068	0.97 ± 0.074	0.988 ± 0.056	0.964 ± 0.049
TRMT61A (UniProt Q96FX7)	0.973 ± 0.016	1.01 ± 0.025	1.01 ± 0.03	0.978 ± 0.068	0.991 ± 0.049	1.01 ± 0.037
SNRNP40 (UniProt Q96DI7)	1.13 ± 0.019	1.17 ± 0.08	1.28 ± 0.069	1.35 ± 0.089	1.48 ± 0.13	1.57 ± 0.12
UniProt Q96HD1 and related entries	1.05 ± 0.09	1.01 ± 0.085	1.01 ± 0.079	1.01 ± 0.088	1.03 ± 0.084	1.04 ± 0.099
UniProt Q96BW9-2|Q96BW9-3|Q96BW9	1.12 ± 0.084	1.14 ± 0.075	1.11 ± 0.03	1.05 ± 0.1	1.11 ± 0.033	1.12 ± 0.012
UniProt Q96ST2 and related entries	0.859 ± 0.02	0.834 ± 0.011	0.708 ± 0.026	0.634 ± 0.018	0.551 ± 0.035	0.556 ± 0.025
UniProt Q96PV6-2	1.05 ± 0.025	1.05 ± 0.024	1.087 ± 0.0021	1.11 ± 0.021	1.15 ± 0.02	1.17 ± 0.018
MRPL53 (UniProt Q96EL3)	0.958 ± 0.09	0.89 ± 0.093	0.855 ± 0.11	0.86 ± 0.24	0.874 ± 0.14	0.788 ± 0.11
MRPS24 (UniProt Q96EL2)	1.07 ± 0.099	0.953 ± 0.045	0.985 ± 0.019	0.874 ± 0.074	0.965 ± 0.071	0.897 ± 0.038
UniProt Q96BS2 and related entries	0.984 ± 0.026	1.07 ± 0.075	0.975 ± 0.15	0.989 ± 0.059	0.982 ± 0.04	0.986 ± 0.05
UniProt Q96F44 and related entries	1.01 ± 0.025	1.03 ± 0.062	0.982 ± 0.07	1.044 ± 0.0095	0.98 ± 0.057	0.974 ± 0.045
